Assay results published in patent publication US11806332B2, “Compositions and methods for inhibition of SARS-CoV-2 viral infections” (priority 2020, dated 2023).
For some of these results: For at least one compound, name, drawing or mass did not settle the structure. Some of these results come from one statement about several compounds together.

Experiments:
[1] = biological target: T1, M^Pro (Severe acute respiratory syndrome coronavirus 2, UniProt P0DTD1)
[2] = biological target: T1, M^Pro; format: biochemical; details: Hill coefficient of IC50 curve, four-parameter fit

SMILES	activation of M^Pro [1]	Hill Slope [2]
CCN1CC(CCN2CCOCC2)C(c2ccccc2)(c2ccccc2)C1=O (stereo not shown) [Doxapram]	> 15%	–
CN1CCN(CC(=O)N2c3ccccc3C(=O)Nc3cccnc32)CC1 [Pirenzepine]	> 15%	–
CCOc1ccccc1OC(c1ccccc1)C1CNCCO1 (stereo not shown) [Reboxetine]	> 15%	–
CCC[C@@]1(CCc2ccccc2)CC(O)=C([C@H](CC)c2cccc(NS(=O)(=O)c3ccc(C(F)(F)F)cn3)c2)C(=O)O1 [Tipranavir]	–	1.4 ± 0.2
